In publication PMC7819943, “Rice protein-binding microarrays: a tool to detect cis-acting elements near promoter regions in rice”:
The list shows a part of the results.

target: T1, OsSMF1 (Oryza sativa, UniProt Q6ZLB0 1-436); assay: protein-binding microarray (RPBM); PBS, 2% BSA, 51.3 ng/ul salmon testes DNA, 50 uM zinc acetate, 200 nM TF, 25 C, 1 h; high values mean tight binding; conditions: protein: recombinant; tags: N-terminal polyhistidine and DsRed monomer fusion (pET32a); chain copies: 2; label: CyDye5-dUTP incorporated in the synthesized complementary strand; 3' TTTTT single-stranded linker to array surface; dsDNA, one strand shown
T1 sequence: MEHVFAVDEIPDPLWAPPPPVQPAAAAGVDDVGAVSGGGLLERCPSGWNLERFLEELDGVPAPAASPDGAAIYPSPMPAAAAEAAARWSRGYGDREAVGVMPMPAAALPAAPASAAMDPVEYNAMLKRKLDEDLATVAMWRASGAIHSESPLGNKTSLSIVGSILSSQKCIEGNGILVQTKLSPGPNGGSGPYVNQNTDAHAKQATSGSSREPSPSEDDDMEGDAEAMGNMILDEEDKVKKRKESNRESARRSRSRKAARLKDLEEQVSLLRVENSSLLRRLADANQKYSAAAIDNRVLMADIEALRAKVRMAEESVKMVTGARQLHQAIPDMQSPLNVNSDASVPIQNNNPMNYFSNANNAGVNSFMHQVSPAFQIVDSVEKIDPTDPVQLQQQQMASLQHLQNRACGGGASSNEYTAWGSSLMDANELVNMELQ
How it was run: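 An Axon 4000B scanner gave the binding signal as per-feature fluorescence intensity in arbitrary units. This followed washing of a custom Agilent array that had been incubated for 1 h at 25 °C with 200 nM protein in PBS, 2% BSA, salmon testes DNA and 50 µM zinc acetate. The proteins were transcription factors fused at the N-terminus to polyhistidine and DsRed, expressed in E. coli BL21-CodonPlus and purified on Ni–NTA.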

Sequence	binding signal
ACAAAGGATGTAGAAATATGGAGCTGAGTAATCTAGCCAACGGAGTCACCTAGTGCAG	3780 fluorescence intensity (a.u.)
CCGTGCAGCTCTCACTTGATCATCTTATCGCTACTCAGCCCGGAGTCACCTAGTGCAG	3730 fluorescence intensity (a.u.)
CCAATTCGCCATCCGTCTGTCGACCGCATCTTAATATCCGCGGAGTCACCTAGTGCAG	4340 fluorescence intensity (a.u.)
CCTCCGGCCAAGTGACACCGCAGCTCACCTCACCTCACCTCGGAGTCACCTAGTGCAG	3950 fluorescence intensity (a.u.)
TGGTGTACTGTAAAGAATTCTCCTTGATTTAATGTTGTCACGGAGTCACCTAGTGCAG	3500 fluorescence intensity (a.u.)
TTATCGTGATATTAACACAGCCTTTCTTCCATGTTGCTTGCGGAGTCACCTAGTGCAG	30200 fluorescence intensity (a.u.)
GAGGGGTTACGCGTTAGGCGCTGCCACGTGTATCGATCGGCGGAGTCACCTAGTGCAG	21900 fluorescence intensity (a.u.)
CGAGCCCACTCGAGGTGACTCACCTTGTTCCTCCACCAGTCGGAGTCACCTAGTGCAG	18500 fluorescence intensity (a.u.)
GCCTTCTCCACGCACTCTGCTGAGTGCTCGATCGCTCACTCGGAGTCACCTAGTGCAG	3210 fluorescence intensity (a.u.)
GGTTTGGCCATGCATGCATGCATGCGTGCTTCCCACGTGACGGAGTCACCTAGTGCAG	3680 fluorescence intensity (a.u.)
CGAATTTGCGTCACTCAAATGGCATTTGTCACTTAAAGCGCGGAGTCACCTAGTGCAG	6890 fluorescence intensity (a.u.)
GGACGGCGCCGACGTGGGTTGGGGAAGGCTGCTCGGCTCACGGAGTCACCTAGTGCAG	4580 fluorescence intensity (a.u.)
GGCCTCGCTCCCCGTGGCCGTGGCCCGCTCCTATAAATAGCGGAGTCACCTAGTGCAG	29900 fluorescence intensity (a.u.)
AATGTACGGGCACACGAGTGCACGACATCATGTTATGCGGCGGAGTCACCTAGTGCAG	3380 fluorescence intensity (a.u.)
CGTCTCGCCGCCCGTCTCCGGCGGCCGCACGTTGGCATTTCGGAGTCACCTAGTGCAG	4100 fluorescence intensity (a.u.)
ATTAATAACCTGAGGTCATCAGTGATATCTACGTGGGCTGCGGAGTCACCTAGTGCAG	4760 fluorescence intensity (a.u.)
AACCCGTTGTAAGTTTGGTTAAATTTTATCATTCATCCTTCGGAGTCACCTAGTGCAG	3530 fluorescence intensity (a.u.)
TTATACAAACAGTCCTGAATGCCAAGTCTGGTTAACACATCGGAGTCACCTAGTGCAG	31600 fluorescence intensity (a.u.)
GCGCTGTTTATGACTCCGCCAGTGTCTTGAGCTAAGAGCCCGGAGTCACCTAGTGCAG	5270 fluorescence intensity (a.u.)
CCAGTTCCGTTTCCCACACTAGACTTAGAGAGAGAGGTAGCGGAGTCACCTAGTGCAG	11400 fluorescence intensity (a.u.)
TAGCCACGTAATTTTGACAGGCTGCTCTTGCAGTTAGTGGCGGAGTCACCTAGTGCAG	8040 fluorescence intensity (a.u.)

Another view of some results above:
GGACGGCGCCGACGTGGGTTGGGGAAGGCTGCTCGGCTCACGGAGTCACCTAGTGCAG
  binding signal = 4580 fluorescence intensity (a.u.)
TAGCCACGTAATTTTGACAGGCTGCTCTTGCAGTTAGTGGCGGAGTCACCTAGTGCAG
  binding signal = 8040 fluorescence intensity (a.u.)

(further entries)

Sequence	binding signal
TTCGCTAACTGGGTATAGGTGGGCCAAGTTTACTCTTGGGCGGAGTCACCTAGTGCAG	3380 fluorescence intensity (a.u.)
ACTTTGAAAGCACTGTTTCAGATGTGAATCACCCTTTGCTCGGAGTCACCTAGTGCAG	3250 fluorescence intensity (a.u.)
AACCAATGAATGTTTGTGTCACGCACGCATCCACCGATCCCGGAGTCACCTAGTGCAG	3550 fluorescence intensity (a.u.)
TTTCATCTTCACGTAGATTGCGTTGTCATGCAGGTCATTTCGGAGTCACCTAGTGCAG	4600 fluorescence intensity (a.u.)
AAGAATCGAAACGTTAGAAAAGAGGACACGTCGCCAAAAGCGGAGTCACCTAGTGCAG	3520 fluorescence intensity (a.u.)
GTCCTGGTGTTCCGATCGATCGACGTGGTGTACATGCATCCGGAGTCACCTAGTGCAG	4910 fluorescence intensity (a.u.)
CCAGTAGAGATGGCTTTCGTGAGCGTGGTGCACATGATCTCGGAGTCACCTAGTGCAG	19700 fluorescence intensity (a.u.)
GACCATTCAACTTCTCGTTATCGACAAGTACTCCTCGAAACGGAGTCACCTAGTGCAG	4080 fluorescence intensity (a.u.)
ATTGATTGGCCCAAGATATCCATCGGCATCGGCGCCGGCGCGGAGTCACCTAGTGCAG	3660 fluorescence intensity (a.u.)
GTGATATGACATGGTTGTTCCATCGACGTGGTATACTATTCGGAGTCACCTAGTGCAG	4510 fluorescence intensity (a.u.)
GTATTGATCATATTGTGTGCATTTATGGTGTATCAAAATACGGAGTCACCTAGTGCAG	29400 fluorescence intensity (a.u.)
GGTGGCGGCGCGGGCCGGGCGGCGGCGGCGGCGGCGGCTCCGGAGTCACCTAGTGCAG	40400 fluorescence intensity (a.u.)
ACCACCTTCTGATCAGCCAAACTCACGTTAGAACATCTCACGGAGTCACCTAGTGCAG	3140 fluorescence intensity (a.u.)
GATTATAAAATATGAATAGTACTTTACGTGTGACTTATGTCGGAGTCACCTAGTGCAG	3700 fluorescence intensity (a.u.)
CTTATCAGTCGTAGCTCAACCTATAAGAGGCCTAAATATACGGAGTCACCTAGTGCAG	32800 fluorescence intensity (a.u.)
ACTCGGAGAAAACAAGCCATCACAATCACGAATTGAAGAACGGAGTCACCTAGTGCAG	3420 fluorescence intensity (a.u.)
GATGGACGGAGCACCCACTGCTGCGGGCGTGAGGTGTCGCCGGAGTCACCTAGTGCAG	4410 fluorescence intensity (a.u.)
TACACTCATTATCCGACAATCAGTTCTGACATGGTTGAACCGGAGTCACCTAGTGCAG	3260 fluorescence intensity (a.u.)
TAAATTAGGTGATACGTCATCCTCGTGTGCGCGGTCGTGGCGGAGTCACCTAGTGCAG	10300 fluorescence intensity (a.u.)
CTTTATTTCCTTGCATGTCAACTATAAACCTACACCTCCTCGGAGTCACCTAGTGCAG	3430 fluorescence intensity (a.u.)
GGATCTACAATGAACGAAATAACGCGTGGCATTGTACTCTCGGAGTCACCTAGTGCAG	5510 fluorescence intensity (a.u.)

Sequence	binding signal
CACACCCTCTCCCCTCCTCCATGCTTCTACGTCATCGTCACGGAGTCACCTAGTGCAG	7160 fluorescence intensity (a.u.)
TTAGTCACTGTTTGGCATATTCCACGTTAGATTTAAAACTCGGAGTCACCTAGTGCAG	4200 fluorescence intensity (a.u.)
CAACGTGACAAGAAAACTTTAGTCACGGGATCCAAACGCTCGGAGTCACCTAGTGCAG	3190 fluorescence intensity (a.u.)
AGCCGCTTGGCCACCCCTCGCCACCTGGTCATCGCTGCCGCGGAGTCACCTAGTGCAG	4680 fluorescence intensity (a.u.)
GTGTGAGATCCATTTGTCACTTACACACCCTCTTTCTCTTCGGAGTCACCTAGTGCAG	3520 fluorescence intensity (a.u.)
GCATCGCCCTGCCGCCGACGACCGTCGCCATCGCGCCCTGCGGAGTCACCTAGTGCAG	3300 fluorescence intensity (a.u.)
CATCTTCCCCTCCCTCACTCGCTGACGCGTGGGGCCAGCGCGGAGTCACCTAGTGCAG	4190 fluorescence intensity (a.u.)
TTTCTACAGTTTTAACTGATTCTGCATATGTTGGCTTCTCCGGAGTCACCTAGTGCAG	3270 fluorescence intensity (a.u.)
CAGCGGGTCAACGAGCGAAGACGAAGGTGACAGGGCAAGCCGGAGTCACCTAGTGCAG	32500 fluorescence intensity (a.u.)
CTCGCATAATCTTGTATCCCTCATCTCAGATTATCATCACCGGAGTCACCTAGTGCAG	3210 fluorescence intensity (a.u.)
TCTCTGTCAGATCATCAGACGCAATATTGTGCTCTCTGTCCGGAGTCACCTAGTGCAG	4470 fluorescence intensity (a.u.)
CTGAAACCAATAAATTGTAGACGTGGTACAATTCTGACTCCGGAGTCACCTAGTGCAG	3960 fluorescence intensity (a.u.)
GAGTTGTGCGTATTGTTCCCTGCGTCACTGCGTGCTCTTGCGGAGTCACCTAGTGCAG	5700 fluorescence intensity (a.u.)
GCATCGTGGGGTGTGGGTGGCGGTTTTGGAGGGGAGAGGTCGGAGTCACCTAGTGCAG	4780 fluorescence intensity (a.u.)
TGCTGATACCGAGACACCTCATCCCTTTCACCGCGGTATCCGGAGTCACCTAGTGCAG	5170 fluorescence intensity (a.u.)
ATGTACCGCATATACTTTAGACAATATAACATCGAGTGAACGGAGTCACCTAGTGCAG	7260 fluorescence intensity (a.u.)
CTGAGATCCGGCGGCCGCTGACCGGGCTCGACGACACGCTCGGAGTCACCTAGTGCAG	3240 fluorescence intensity (a.u.)
ATTTCGCCTGAGCCACGCGTCGCTCCCTCTCCTCTTCTCCCGGAGTCACCTAGTGCAG	3410 fluorescence intensity (a.u.)
GGAACTGTCACTGCTTTGTCAGACGTTCGCCTATAATTCACGGAGTCACCTAGTGCAG	5300 fluorescence intensity (a.u.)
GGTTGGGAGAAAAGCCCCACATGTCAGTGACACGGCCAGCCGGAGTCACCTAGTGCAG	5240 fluorescence intensity (a.u.)
GATTGGCTGTGAGTGGTGTTAACCTAGCTGGACTCGGTTCCGGAGTCACCTAGTGCAG	3260 fluorescence intensity (a.u.)

For convenience, some entries already given.
Sequence	binding signal
CAACGTGACAAGAAAACTTTAGTCACGGGATCCAAACGCTCGGAGTCACCTAGTGCAG	3190 fluorescence intensity (a.u.)
AGCCGCTTGGCCACCCCTCGCCACCTGGTCATCGCTGCCGCGGAGTCACCTAGTGCAG	4680 fluorescence intensity (a.u.)
GTGTGAGATCCATTTGTCACTTACACACCCTCTTTCTCTTCGGAGTCACCTAGTGCAG	3520 fluorescence intensity (a.u.)
GCATCGCCCTGCCGCCGACGACCGTCGCCATCGCGCCCTGCGGAGTCACCTAGTGCAG	3300 fluorescence intensity (a.u.)
CATCTTCCCCTCCCTCACTCGCTGACGCGTGGGGCCAGCGCGGAGTCACCTAGTGCAG	4190 fluorescence intensity (a.u.)

(cont.)

Sequence	binding signal
CACGTGGGACGAAAACTAGGTCAACATCGCCACGTCAGCGCGGAGTCACCTAGTGCAG	45900 fluorescence intensity (a.u.)
TCCCACGGAGACGGAGTGAACTCCACGTCCATTGATGGGTCGGAGTCACCTAGTGCAG	4520 fluorescence intensity (a.u.)
AAAAGGGGCTCGCTGGCCGGAGACGAAGACGGAGACGCAGCGGAGTCACCTAGTGCAG	14200 fluorescence intensity (a.u.)
CAGAAGAAATGCCACTGTATCATTGATAATAATGCTCTATCGGAGTCACCTAGTGCAG	30100 fluorescence intensity (a.u.)
TTGTGCAGTCTCATCTACCTGTGACGTTTACAGTTTTGACCGGAGTCACCTAGTGCAG	4800 fluorescence intensity (a.u.)
TTACTTGAAAGCGTGACGCGGACACGTGGCGCCTCCGTAGCGGAGTCACCTAGTGCAG	12700 fluorescence intensity (a.u.)
ATGTGTGTGGGATATTACGCTGCTAAAACTTTGTGTTTCTCGGAGTCACCTAGTGCAG	3410 fluorescence intensity (a.u.)
GCGACGGCGGTGGTGGTGGGGTGTGGACGGCTAGGGTTTACGGAGTCACCTAGTGCAG	5060 fluorescence intensity (a.u.)
TTCCTACGTGCTGCCGCGCGCCACATATTAATCAGCCGCACGGAGTCACCTAGTGCAG	3840 fluorescence intensity (a.u.)
AAGGATGGATATGAGCCCTACCTCCACATCAGTAGCTATCCGGAGTCACCTAGTGCAG	4600 fluorescence intensity (a.u.)
TTAGTACCACTGCCACCCTGTCATCTCTGATAGGACTATACGGAGTCACCTAGTGCAG	3340 fluorescence intensity (a.u.)
TGCCATGTAAGCGCCACGTCAATGCCACGTGGGACAAAGACGGAGTCACCTAGTGCAG	21800 fluorescence intensity (a.u.)
TTCAAATATCATCATATCCGTGGCACGCCATGTTTGCTTTCGGAGTCACCTAGTGCAG	3280 fluorescence intensity (a.u.)
TAACCCCGGTTTTGTCCCACGTGGCGGCTGAGTCACCGTGCGGAGTCACCTAGTGCAG	36000 fluorescence intensity (a.u.)
TTTTATGAGTGAATACAAGCTTGCCTACCATTTGTCACAGCGGAGTCACCTAGTGCAG	3380 fluorescence intensity (a.u.)
CGTGGGCCCCACCCGTGCCAGCTCACCTCATCCCCACCACCGGAGTCACCTAGTGCAG	12600 fluorescence intensity (a.u.)
CATGCATGCACTGTAACTGAACTTTACAGCATCCAACCAGCGGAGTCACCTAGTGCAG	31000 fluorescence intensity (a.u.)
CAGTTTGAACTGGACAAACGGACACTCAAAACCACACACGCGGAGTCACCTAGTGCAG	3260 fluorescence intensity (a.u.)
AAGGGAAATGATTTACCATCCCTCTTTAAATCTTAACCATCGGAGTCACCTAGTGCAG	3600 fluorescence intensity (a.u.)
CCCTCCCCACCGCCGCCGATCCGAGAGCCTCCACGTCCCCCGGAGTCACCTAGTGCAG	6680 fluorescence intensity (a.u.)
TTGCTTGCTGCCATAAGCCGCTGAGGTCACCACGGGCGGCCGGAGTCACCTAGTGCAG	4170 fluorescence intensity (a.u.)
